Some of these results come from one statement about several compounds together. At least one structure is not confirmed: it was looked up by name or label, or the drawing left a doubt.
Assays:
Assay type in all cases: in vivo
Spodoptera littoralis = Spodoptera littoralis (Egyptian cotton leafworm) leaf disc spray test; details: 200 ppm sprayed on cotton leaf discs, 5 L1 larvae, 3 DAT; mortality, repellent effect, feeding behaviour, growth regulation
Aedes aegypti = Aedes aegypti (yellow fever mosquito) larvae test; details: 2 ppm, L2 larvae with nutrition mixture, 2 days; mortality, growth inhibition
Diabrotica balteata = Diabrotica balteata (corn root worm) larvae test on artificial diet; details: 200 ppm (concentration in well 18 ppm) on artificial diet, L2 larvae, 5 days; larval mortality, growth regulation
Plutella xylostella = Plutella xylostella (diamond back moth) larvae test on artificial diet; details: 18.2 ppm by pipetting on artificial diet, L2 larvae, 5 days; larval mortality, antifeedant, growth regulation
Heliothis virescens = Heliothis virescens (tobacco budworm) egg test on artificial diet; details: 200 ppm by pipetting, eggs (0-24 h old) on artificial diet, 4 days; egg mortality, larval mortality, growth regulation

Compound	control of Spodoptera littoralis (Spodoptera littoralis)	control of Aedes aegypti (Aedes aegypti)	control of Diabrotica balteata (Diabrotica balteata)	control of Plutella xylostella (Plutella xylostella)	control of Heliothis virescens (Heliothis virescens)
O=C(c1ccnc(Cl)c1)N1CC(c2ccccc2F)C2(CCN(C/C=C/c3ccc(Cl)cc3)CC2)C1 (stereo not shown) [E.21]	at least 80%	at least 80%	at least 80%		
CC(=O)N1CC(c2ccc(F)cc2)C2(CCN(C/C=C/c3ccc(Cl)cc3)CC2)C1 (stereo not shown) [E.8]	at least 80%			at least 80%	
O=C(c1ccnc(Cl)c1)N1CC(c2ccc(F)cc2F)C2(CCN(C/C=C/c3ccc(Cl)cc3)CC2)C1 (stereo not shown) [E.23]	at least 80%	at least 80%	at least 80%	at least 80%	at least 80%
O=C(c1ccnc(Cl)c1)N1CC(c2ccc(F)cc2)C2(CCN(Cc3ccc4cc(Cl)ccc4c3)CC2)C1 (stereo not shown) [E.98]	at least 80%	at least 80%			at least 80%
O=C(c1ccnc(Cl)c1)N1CC(c2ccc(F)cc2)C2(CCN(Cc3ccc(OC(F)(F)F)cc3)CC2)C1 (stereo not shown) [E.46]		at least 80%			
O=C(NCc1ccc(Oc2ccccc2)cc1)N1CC(c2ccc(F)cc2)C2(CCN(C/C=C/c3ccc(Cl)cc3)CC2)C1 (stereo not shown) [E.94]				at least 80%	
O=C(c1ccnc(Cl)c1)N1CC(c2c(F)cccc2F)C2(CCN(C/C=C/c3ccc(Cl)cc3)CC2)C1 (stereo not shown) [E.24]	at least 80%	at least 80%		at least 80%	
O=C(c1ccnc(Cl)c1)N1CC(c2ccc(F)cc2)C2(CCN(Cc3ccc(-c4ccccc4)cc3)CC2)C1 (stereo not shown) [E.59]	at least 80%				
CSc1ccc(CN2CCC3(CC2)CN(C(=O)c2ccnc(Cl)c2)CC3c2ccc(F)cc2)s1 (stereo not shown) [E.35]				at least 80%	
CC(CN1CCC2(CC1)CN(C(=O)c1ccnc(Cl)c1)CC2c1ccc(F)cc1)c1ccccc1 (stereo not shown) [E.32]		at least 80%			
O=C(c1ccnc(Cl)c1)N1CC(c2ccc(F)cc2)C2(CCN(C/C=C/c3ccc(OC(F)(F)F)cc3)CC2)C1 (stereo not shown) [E.5]	at least 80%	at least 80%	at least 80%	at least 80%	at least 80%
O=C(c1ccnc(Cl)c1)N1CC(c2ccc(F)c(F)c2)C2(CCN(C/C=C/c3ccc(Cl)cc3)CC2)C1 (stereo not shown) [E.26]	at least 80%	at least 80%			at least 80%
O=C(c1ccnc(Cl)c1)N1CC(c2ccc(F)cc2)C2(CCN(C/C=C/c3ccc(C(F)(F)F)cc3)CC2)C1 (stereo not shown) [E.4]	at least 80%	at least 80%	at least 80%		
Cc1nc(-c2ccccc2)ncc1CN1CCC2(CC1)CN(C(=O)c1ccnc(Cl)c1)CC2c1ccc(F)cc1 (stereo not shown) [E.44]	at least 80%	at least 80%	at least 80%		
O=C(c1ccnc(Cl)c1)N1CC(c2ccccc2)C2(CCN(C/C=C/c3ccc(Cl)cc3)CC2)C1 (stereo not shown) [E.22]	at least 80%	at least 80%		at least 80%	at least 80%
O=C(NCc1ccc(C(F)(F)F)nc1)N1CC(c2ccc(F)cc2)C2(CCN(C/C=C/c3ccc(Cl)cc3)CC2)C1 (stereo not shown) [E.16]				at least 80%	
COc1ccc(CNC(=O)N2CC(c3ccc(F)cc3)C3(CCN(C/C=C/c4ccc(Cl)cc4)CC3)C2)cc1 (stereo not shown) [E.91]			at least 80%		
Cc1c(CN2CCC3(CC2)CN(C(=O)c2ccnc(Cl)c2)CC3c2ccc(F)cc2)cnn1-c1ccccc1 (stereo not shown) [E.48]	at least 80%				
C=C(CN1CCC2(CC1)CN(C(=O)c1ccnc(Cl)c1)CC2c1ccc(F)cc1)c1ccccc1[N+](=O)[O-] (stereo not shown) [E.43]		at least 80%			
O=C(c1ccnc(F)c1)N1CC(c2ccc(F)cc2)C2(CCN(C/C=C/c3ccc(Cl)cc3)CC2)C1 (stereo not shown) [E.10]	at least 80%	at least 80%			

Compound	control of Spodoptera littoralis (Spodoptera littoralis)	control of Aedes aegypti (Aedes aegypti)	control of Diabrotica balteata (Diabrotica balteata)	control of Plutella xylostella (Plutella xylostella)	control of Heliothis virescens (Heliothis virescens)
O=C(c1ccnc(Cl)c1)N1CC(c2ccc(F)cc2)C2(CCN(Cc3ccc(-c4ccc(F)cc4)cc3)CC2)C1 (stereo not shown) [E.7]	at least 80%	at least 80%	at least 80%	at least 80%	at least 80%
CCOc1ccc(CN2CCC3(CC2)CN(C(=O)c2ccnc(Cl)c2)CC3c2ccc(F)cc2)cc1 (stereo not shown) [E.38]		at least 80%			
O=C(c1ccnc(Cl)c1)N1CC(c2cc(F)ccc2F)C2(CCN(C/C=C/c3ccc(Cl)cc3)CC2)C1 (stereo not shown) [E.25]		at least 80%			at least 80%
Cn1cc(Cl)c(CN2CCC3(CC2)CN(C(=O)c2ccnc(Cl)c2)CC3c2ccc(F)cc2)n1 (stereo not shown) [E.33]	at least 80%				
O=C(NCCC(F)(F)F)N1CC(c2ccc(F)cc2)C2(CCN(C/C=C/c3ccc(Cl)cc3)CC2)C1 (stereo not shown) [E.83]			at least 80%		
O=C(c1ccnc(Cl)c1)N1CC(c2ccc(F)cc2)C2(CCN(C/C=C/c3ccccc3)CC2)C1 (stereo not shown) [E.37]	at least 80%	at least 80%			
O=C(/C=C/c1cccs1)N1CC(c2ccc(F)cc2)C2(CCN(C/C=C/c3ccc(Cl)cc3)CC2)C1 (stereo not shown) [E.68]	at least 80%				
O=C(c1ccnc(Cl)c1)N1CC(c2ccc(F)cc2)C2(CCN(C/C=C/c3ccc(Cl)cc3)CC2)C1 (stereo not shown) [E.2]	at least 80%	at least 80%	at least 80%	at least 80%	at least 80%
O=C(c1ccnc(Cl)c1)N1CC(c2ccc(Cl)cc2)C2(CCN(C/C=C/c3ccc(Cl)cc3)CC2)C1 (stereo not shown) [E.1]			at least 80%	at least 80%	at least 80%
O=C(c1cc(Cl)nc(Cl)c1)N1CC(c2ccc(F)cc2)C2(CCN(C/C=C/c3ccc(Cl)cc3)CC2)C1 (stereo not shown) [E.9]	at least 80%	at least 80%	at least 80%	at least 80%	at least 80%
O=C(c1ccnc(Cl)c1)N1CC(c2ccc(F)cc2)C2(CCN(CCCCCCCCN3C(=O)c4ccccc4C3=O)CC2)C1 (stereo not shown) [E.60]				at least 80%	
O=C(c1ccnc(Cl)c1)N1CC(c2ccc(F)cc2)C2(CCN(Cc3ccc(-c4ccccn4)cc3)CC2)C1 (stereo not shown) [E.47]	at least 80%	at least 80%			
CCOC(=O)/C=C/CN1CCC2(CC1)CN(C(=O)c1ccnc(Cl)c1)CC2c1ccc(F)cc1 (stereo not shown) [E.52]				at least 80%	
COc1ccc(/C=C/CN2CCC3(CC2)CN(C(=O)c2ccnc(Cl)c2)CC3c2ccc(F)cc2)cc1 (stereo not shown) [E.39]		at least 80%			
CC#CCN1CCC2(CC1)CN(C(=O)c1ccnc(Cl)c1)CC2c1ccc(F)cc1 (stereo not shown) [E.62]	at least 80%				
O=C(c1ccnc(Cl)c1)N1CC(c2ccccc2OC(F)(F)F)C2(CCN(C/C=C/c3ccc(Cl)cc3)CC2)C1 (stereo not shown) [E.18]		at least 80%			
O=C(c1ccnc(Cl)c1)N1CC(c2ccc(F)cc2)C2(CCN(C/C=C/c3ccc(Br)cc3)CC2)C1 (stereo not shown) [E.3]	at least 80%	at least 80%	at least 80%	at least 80%	at least 80%
COc1cccc(CN2CCC3(CC2)CN(C(=O)c2ccnc(Cl)c2)CC3c2ccc(F)cc2)c1 (stereo not shown) [E.53]				at least 80%	
O=C(c1ccnc(Cl)c1)N1CC(c2ccccc2OC(F)(F)F)C2(CCN(C/C=C/c3ccc(Br)cc3)CC2)C1 (stereo not shown) [E.17]		at least 80%			
